Results as given in patent publication US7723467B2, “Antimicrobial compounds” (New England Medical Center Hospitals, Inc., priority 2000, dated 2010).
At least one structure is not confirmed: it was looked up by name or label, or the drawing left a doubt. No end group written: not given here.

Tested on: microorganisms tested
Assay: Antimicrobial activity across the microorganisms tested
Assay type: cell-based
Details: nearly all microorganisms tested

## RPPGFSPFR [Bradykinin, reference compound]
  antibacterial potency compared with SP or SP antagonist: significantly lower antibacterial potency than either SP or SP antagonist
